Measurements taken from the supplement of paper PMC9433722.
Where a name gives a salt, the structure may show the parent alone. The list shows a part of the results. Most values come without repeats; read them as rough.

System: U2OS
Test: cell viability (CCK-8) relative to DMSO control (% of control); higher = less cytotoxic
Settings: 10 µM; 48 h

Row | Compound | cell viability
1 | CC(=O)Nc1nnc(S(N)(=O)=O)s1 [Acetazolamide] | 80
2 | CC(c1cc2ccccc2s1)N(O)C(N)=O (centres undefined) [Zileuton] | 90.4
3 | CN(C)CCCN1c2ccccc2CCc2ccc(Cl)cc21 [Clomipramine·HCl] | 105
4 | NC1=NCC2c3ccccc3Cc3ccccc3N12 (centres undefined) [Epinastine·HCl] | 81
5 | CC(C)c1nc(CN(C)C(=O)N[C@H](C(=O)N[C@@H](Cc2ccccc2)C[C@H](O)[C@H](Cc2ccccc2)NC(=O)OCc2cncs2)C(C)C)cs1 [Ritonavir] | 103
6 | CN/C(=N\CCSCc1nc[nH]c1C)NC#N [Cimetidine] | 114
7 | NC[C@H]1O[C@H](O[C@H]2[C@H](O)[C@@H](O[C@H]3O[C@H](CO)[C@@H](O)[C@H](N)[C@H]3O)[C@H](N)C[C@@H]2N)[C@H](N)C[C@@H]1O [Tobramycin] | 108
8 | CCCCCCCCc1ccc(CCC(N)(CO)CO)cc1 | 75
9 | CCCCNc1cc(C(=O)O)cc(S(N)(=O)=O)c1Oc1ccccc1 [Bumetanide] | 103
10 | CN1C(=O)CC(C)(c2ccccc2)C1=O (centres undefined) [Methsuximide] | 102
11 | O=c1[nH]c(=O)n([C@H]2C[C@H](O)[C@@H](CO)O2)cc1F [Floxuridine] | 43.2
12 | CCN(CC)C(=O)/C(C#N)=C/c1cc(O)c(O)c([N+](=O)[O-])c1 [Entacapone] | 117
13 | Cc1[nH]cnc1CN1CCc2c(c3ccccc3n2C)C1=O [Alosetron·HCl] | 83.8
14 | CCC(=O)O[C@]1(C(=O)SCF)[C@H](C)C[C@H]2[C@@H]3C[C@H](F)C4=CC(=O)C=C[C@]4(C)[C@@]3(F)[C@@H](O)C[C@@]21C [Fluticasone Propionate] | 101

Some of these compounds in order of SMILES length, rising.
Row | Compound | cell viability
4 | NC1=NCC2c3ccccc3Cc3ccccc3N12 (centres undefined) [Epinastine·HCl] | 81
8 | CCCCCCCCc1ccc(CCC(N)(CO)CO)cc1 | 75
5 | CC(C)c1nc(CN(C)C(=O)N[C@H](C(=O)N[C@@H](Cc2ccccc2)C[C@H](O)[C@H](Cc2ccccc2)NC(=O)OCc2cncs2)C(C)C)cs1 [Ritonavir] | 103
